Results reported in patent US5264432A, “5-(1-aminoacyl)-5,10-dihydro-11H-dibenzo[b,e](1,4)diazepin-11-ones” (Arzneimittelwerk Dresden G.m.b.H, priority 1989, dated 1993).

Test system: CaCl2 arrhythmia of the rat
Assay: CaCl2 arrhythmia of the rat (antifibrillatory effect)
Details: ratio LD50 iv./ED50 iv.
Description: The data is analyzed by the Probit regression analysis with a confidence interval of p=0.05 (values in parentheses).
Q is the ratio of LD50 iv. /ED50 iv. to determine therapeutic breadth range.

CCN(CC)CC(=O)Nc1c(C)cccc1C [Lidocaine, reference compound]
Q = LD50/ED50 (therapeutic breadth): 5.8
